Laboratory results published in the supplement of paper PMC7666118.
The other results are listed elsewhere or left out.

Chains of the proteins cited; added tags and fusions are not shown. Lines headed by an entry give the natural chain unless they say otherwise; changes in a name come on top.
UniProt Q14244: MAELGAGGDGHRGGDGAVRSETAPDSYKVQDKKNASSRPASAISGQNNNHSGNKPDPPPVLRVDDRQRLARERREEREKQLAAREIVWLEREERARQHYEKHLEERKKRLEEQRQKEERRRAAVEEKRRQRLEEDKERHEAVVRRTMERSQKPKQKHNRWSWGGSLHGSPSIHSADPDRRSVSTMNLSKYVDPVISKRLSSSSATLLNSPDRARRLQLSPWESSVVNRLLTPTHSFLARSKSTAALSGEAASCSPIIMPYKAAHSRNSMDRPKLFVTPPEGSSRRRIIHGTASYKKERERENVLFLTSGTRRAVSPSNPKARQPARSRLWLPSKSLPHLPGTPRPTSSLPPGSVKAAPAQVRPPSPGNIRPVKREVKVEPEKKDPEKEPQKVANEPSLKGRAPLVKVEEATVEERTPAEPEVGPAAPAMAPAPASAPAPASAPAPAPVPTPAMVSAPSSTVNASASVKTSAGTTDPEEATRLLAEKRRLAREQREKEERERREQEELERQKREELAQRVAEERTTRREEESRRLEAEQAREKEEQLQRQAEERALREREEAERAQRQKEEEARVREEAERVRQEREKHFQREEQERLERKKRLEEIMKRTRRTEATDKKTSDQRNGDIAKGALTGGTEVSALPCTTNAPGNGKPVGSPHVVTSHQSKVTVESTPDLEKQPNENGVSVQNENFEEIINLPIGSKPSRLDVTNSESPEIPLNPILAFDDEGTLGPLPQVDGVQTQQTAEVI
UniProt Q9H008: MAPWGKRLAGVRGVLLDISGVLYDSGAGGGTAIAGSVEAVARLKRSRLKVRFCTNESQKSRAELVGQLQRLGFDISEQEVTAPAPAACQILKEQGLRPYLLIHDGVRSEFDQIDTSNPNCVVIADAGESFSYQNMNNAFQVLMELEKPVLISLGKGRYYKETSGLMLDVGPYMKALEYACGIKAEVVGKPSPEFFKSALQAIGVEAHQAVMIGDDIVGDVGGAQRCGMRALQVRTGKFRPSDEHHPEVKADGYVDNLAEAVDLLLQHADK
UniProt Q9HCC0: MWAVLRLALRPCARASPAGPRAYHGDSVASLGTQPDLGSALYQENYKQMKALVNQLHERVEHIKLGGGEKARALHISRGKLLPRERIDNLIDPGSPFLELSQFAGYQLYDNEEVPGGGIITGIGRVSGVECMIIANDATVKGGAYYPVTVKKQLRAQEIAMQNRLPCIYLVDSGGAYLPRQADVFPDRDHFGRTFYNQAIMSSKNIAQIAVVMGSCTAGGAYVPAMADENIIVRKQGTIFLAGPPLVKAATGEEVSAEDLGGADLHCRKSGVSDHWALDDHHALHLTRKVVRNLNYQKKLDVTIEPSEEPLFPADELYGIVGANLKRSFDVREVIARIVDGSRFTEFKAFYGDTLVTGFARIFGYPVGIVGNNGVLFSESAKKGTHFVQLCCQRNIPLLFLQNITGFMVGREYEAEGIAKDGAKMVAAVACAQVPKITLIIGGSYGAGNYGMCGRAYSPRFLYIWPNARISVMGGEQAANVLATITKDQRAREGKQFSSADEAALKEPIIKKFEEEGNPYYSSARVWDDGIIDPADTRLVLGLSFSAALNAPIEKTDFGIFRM
UniProt P53667: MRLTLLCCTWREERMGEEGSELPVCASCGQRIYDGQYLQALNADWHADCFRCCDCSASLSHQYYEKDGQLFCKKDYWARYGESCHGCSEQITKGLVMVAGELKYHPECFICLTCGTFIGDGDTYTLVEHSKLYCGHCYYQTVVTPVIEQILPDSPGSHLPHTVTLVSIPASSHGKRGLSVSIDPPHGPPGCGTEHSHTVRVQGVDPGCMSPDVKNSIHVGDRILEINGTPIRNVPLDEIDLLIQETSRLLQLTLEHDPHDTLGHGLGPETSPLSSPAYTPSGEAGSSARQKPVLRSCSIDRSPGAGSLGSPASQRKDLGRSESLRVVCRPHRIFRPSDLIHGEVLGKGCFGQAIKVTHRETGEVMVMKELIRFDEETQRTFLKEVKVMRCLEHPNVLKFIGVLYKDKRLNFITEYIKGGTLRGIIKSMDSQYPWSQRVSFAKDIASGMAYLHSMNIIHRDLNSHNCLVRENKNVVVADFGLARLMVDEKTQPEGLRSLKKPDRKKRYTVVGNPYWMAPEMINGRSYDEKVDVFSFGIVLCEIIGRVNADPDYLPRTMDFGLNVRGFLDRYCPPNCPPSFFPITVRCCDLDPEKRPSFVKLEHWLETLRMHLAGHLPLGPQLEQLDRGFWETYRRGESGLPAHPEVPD
UniProt P28838: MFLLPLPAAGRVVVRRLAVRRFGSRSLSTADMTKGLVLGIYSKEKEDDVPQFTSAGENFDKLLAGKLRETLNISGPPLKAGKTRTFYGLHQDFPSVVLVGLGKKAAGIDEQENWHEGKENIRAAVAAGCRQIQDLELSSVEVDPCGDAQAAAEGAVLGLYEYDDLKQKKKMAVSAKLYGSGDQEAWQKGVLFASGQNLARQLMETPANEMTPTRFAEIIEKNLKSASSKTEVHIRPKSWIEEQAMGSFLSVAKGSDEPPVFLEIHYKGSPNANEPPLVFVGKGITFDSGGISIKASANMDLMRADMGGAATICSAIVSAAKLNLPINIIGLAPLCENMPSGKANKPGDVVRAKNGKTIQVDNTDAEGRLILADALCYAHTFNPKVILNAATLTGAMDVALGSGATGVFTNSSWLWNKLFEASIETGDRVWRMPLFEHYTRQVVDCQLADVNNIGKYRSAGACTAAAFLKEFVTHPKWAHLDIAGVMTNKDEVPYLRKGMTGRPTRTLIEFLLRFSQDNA
UniProt O15116: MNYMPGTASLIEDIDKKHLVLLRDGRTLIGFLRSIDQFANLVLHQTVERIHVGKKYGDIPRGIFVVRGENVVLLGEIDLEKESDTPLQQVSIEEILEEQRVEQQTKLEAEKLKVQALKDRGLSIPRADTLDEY
UniProt Q969R5, whole entry: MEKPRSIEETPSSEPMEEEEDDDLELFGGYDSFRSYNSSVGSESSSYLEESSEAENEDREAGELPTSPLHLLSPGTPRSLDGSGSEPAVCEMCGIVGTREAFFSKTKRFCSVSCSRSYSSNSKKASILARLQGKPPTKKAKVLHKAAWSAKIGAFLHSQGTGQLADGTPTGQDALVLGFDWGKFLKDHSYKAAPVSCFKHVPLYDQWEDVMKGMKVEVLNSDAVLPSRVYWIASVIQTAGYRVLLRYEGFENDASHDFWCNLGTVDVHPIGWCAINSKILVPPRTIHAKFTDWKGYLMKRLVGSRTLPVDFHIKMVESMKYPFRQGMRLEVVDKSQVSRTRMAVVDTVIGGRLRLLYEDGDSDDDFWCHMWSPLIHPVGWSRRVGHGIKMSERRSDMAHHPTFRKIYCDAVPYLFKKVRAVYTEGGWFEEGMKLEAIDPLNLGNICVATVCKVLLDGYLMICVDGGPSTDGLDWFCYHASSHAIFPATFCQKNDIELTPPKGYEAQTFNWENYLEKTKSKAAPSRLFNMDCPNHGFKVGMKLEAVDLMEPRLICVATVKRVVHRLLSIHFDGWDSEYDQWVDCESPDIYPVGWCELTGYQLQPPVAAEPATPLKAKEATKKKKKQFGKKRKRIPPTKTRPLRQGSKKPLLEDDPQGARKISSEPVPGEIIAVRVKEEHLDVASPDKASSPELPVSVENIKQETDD
UniProt P13796: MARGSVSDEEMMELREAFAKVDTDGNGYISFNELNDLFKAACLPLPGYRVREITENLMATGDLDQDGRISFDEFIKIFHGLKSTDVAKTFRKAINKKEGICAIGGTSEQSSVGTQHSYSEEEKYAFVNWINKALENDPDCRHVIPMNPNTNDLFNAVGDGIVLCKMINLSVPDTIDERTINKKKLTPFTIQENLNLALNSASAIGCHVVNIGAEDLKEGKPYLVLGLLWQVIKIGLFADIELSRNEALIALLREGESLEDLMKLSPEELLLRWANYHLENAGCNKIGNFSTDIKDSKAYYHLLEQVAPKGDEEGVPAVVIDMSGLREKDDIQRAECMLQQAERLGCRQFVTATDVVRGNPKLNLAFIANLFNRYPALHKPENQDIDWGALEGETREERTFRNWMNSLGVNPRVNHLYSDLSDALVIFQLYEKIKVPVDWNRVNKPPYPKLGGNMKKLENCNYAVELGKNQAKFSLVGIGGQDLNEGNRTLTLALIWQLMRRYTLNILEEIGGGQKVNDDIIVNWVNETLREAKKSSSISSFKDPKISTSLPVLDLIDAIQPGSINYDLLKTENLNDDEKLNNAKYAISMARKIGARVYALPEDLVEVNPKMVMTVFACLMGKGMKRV
UniProt O60711: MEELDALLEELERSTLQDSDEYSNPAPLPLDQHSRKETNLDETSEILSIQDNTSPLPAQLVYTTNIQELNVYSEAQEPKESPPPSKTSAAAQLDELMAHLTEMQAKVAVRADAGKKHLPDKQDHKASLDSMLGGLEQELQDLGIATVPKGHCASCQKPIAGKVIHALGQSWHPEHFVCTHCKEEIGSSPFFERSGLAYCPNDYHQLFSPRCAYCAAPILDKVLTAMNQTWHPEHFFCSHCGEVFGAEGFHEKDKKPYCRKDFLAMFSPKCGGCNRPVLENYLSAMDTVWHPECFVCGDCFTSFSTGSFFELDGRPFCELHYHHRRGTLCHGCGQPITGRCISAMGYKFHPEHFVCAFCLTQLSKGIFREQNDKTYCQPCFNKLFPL
UniProt P62310: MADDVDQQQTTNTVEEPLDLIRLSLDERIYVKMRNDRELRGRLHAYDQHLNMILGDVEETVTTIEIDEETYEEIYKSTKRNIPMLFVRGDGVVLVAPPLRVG
UniProt O95243: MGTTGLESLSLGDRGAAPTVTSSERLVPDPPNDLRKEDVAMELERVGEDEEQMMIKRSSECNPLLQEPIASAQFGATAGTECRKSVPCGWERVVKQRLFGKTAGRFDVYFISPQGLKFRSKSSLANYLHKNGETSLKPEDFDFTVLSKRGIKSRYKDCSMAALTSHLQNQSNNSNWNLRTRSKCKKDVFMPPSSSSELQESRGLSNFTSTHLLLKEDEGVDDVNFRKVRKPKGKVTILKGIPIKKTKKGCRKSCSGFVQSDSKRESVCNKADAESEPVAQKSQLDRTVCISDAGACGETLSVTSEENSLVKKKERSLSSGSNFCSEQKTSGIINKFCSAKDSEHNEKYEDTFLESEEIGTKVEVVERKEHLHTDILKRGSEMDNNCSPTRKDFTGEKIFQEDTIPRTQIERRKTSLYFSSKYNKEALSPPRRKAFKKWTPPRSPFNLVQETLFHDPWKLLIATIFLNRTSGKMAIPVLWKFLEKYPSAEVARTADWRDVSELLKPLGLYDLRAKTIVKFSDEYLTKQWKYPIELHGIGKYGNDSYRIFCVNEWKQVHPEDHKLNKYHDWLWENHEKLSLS
UniProt Q5U5X0: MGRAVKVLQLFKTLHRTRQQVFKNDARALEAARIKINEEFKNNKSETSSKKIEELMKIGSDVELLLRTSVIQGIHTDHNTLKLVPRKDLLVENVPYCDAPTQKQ
UniProt Q8ND56: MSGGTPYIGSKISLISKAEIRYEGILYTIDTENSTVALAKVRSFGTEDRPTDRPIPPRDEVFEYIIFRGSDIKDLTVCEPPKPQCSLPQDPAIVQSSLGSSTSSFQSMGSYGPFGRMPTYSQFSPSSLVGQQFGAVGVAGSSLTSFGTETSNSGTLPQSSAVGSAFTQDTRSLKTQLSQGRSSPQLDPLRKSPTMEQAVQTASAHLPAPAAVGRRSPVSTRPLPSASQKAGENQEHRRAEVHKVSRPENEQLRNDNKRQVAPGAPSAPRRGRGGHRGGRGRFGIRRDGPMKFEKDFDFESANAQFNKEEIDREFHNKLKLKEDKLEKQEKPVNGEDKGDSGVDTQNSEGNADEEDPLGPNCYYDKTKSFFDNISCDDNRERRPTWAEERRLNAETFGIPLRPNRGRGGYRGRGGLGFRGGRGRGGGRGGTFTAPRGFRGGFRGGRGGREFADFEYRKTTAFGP
UniProt O95202: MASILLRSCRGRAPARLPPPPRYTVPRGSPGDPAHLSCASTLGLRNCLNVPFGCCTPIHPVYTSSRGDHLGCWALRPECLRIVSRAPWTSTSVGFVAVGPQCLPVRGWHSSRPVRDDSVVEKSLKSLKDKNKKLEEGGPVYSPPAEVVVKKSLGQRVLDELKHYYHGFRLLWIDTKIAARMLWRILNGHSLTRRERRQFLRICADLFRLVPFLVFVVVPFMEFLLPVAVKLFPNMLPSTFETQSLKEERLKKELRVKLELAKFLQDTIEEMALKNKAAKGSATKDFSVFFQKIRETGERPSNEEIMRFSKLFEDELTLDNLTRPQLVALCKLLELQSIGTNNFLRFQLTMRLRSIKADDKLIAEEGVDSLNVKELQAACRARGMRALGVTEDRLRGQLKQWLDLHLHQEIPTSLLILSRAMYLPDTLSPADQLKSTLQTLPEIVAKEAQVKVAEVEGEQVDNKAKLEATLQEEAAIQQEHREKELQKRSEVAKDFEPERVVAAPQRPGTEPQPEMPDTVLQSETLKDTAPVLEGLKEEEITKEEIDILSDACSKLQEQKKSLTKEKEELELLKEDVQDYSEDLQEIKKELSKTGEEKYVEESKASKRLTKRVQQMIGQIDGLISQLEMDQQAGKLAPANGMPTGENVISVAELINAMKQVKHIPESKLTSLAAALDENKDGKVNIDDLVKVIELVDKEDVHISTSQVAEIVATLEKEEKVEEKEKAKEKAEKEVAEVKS

These targets were tested with COc1ccc(Cn2ccc3cc(C)c(C(=O)NO)cc32)cc1 (assay: dose-dependent thermal stabilisation call (2D-TPP, DLPTP, 10% FDR) (binary (1 = stabilised)); higher = stabilised by the compound). Conditions: system: HL-60 intact cells; concentration range 0.04-10 µM.
Protocol: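 2D thermal proteome profiling in intact HL-60 cells treated with BRD-3811 (0, 0.04, 0.29, 2, 10 uM) for 90 min at 37 C, then heated 3 min at one of 12 temperatures (42-63.9 C). Soluble protein was quantified by TMT10 MS. The value is the DLPTP call of the paper: dose-dependent thermal stabilisation over all temperatures at 10% FDR (F-test of a dose-response against a flat model); one experiment, one call per tested protein.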

| Target | dose-dependent thermal stabilisation call |
| --- | --- |
| MAP7D1 (UniProt Q3KQU3) | inactive: 0 |
| LPGAT1 (UniProt Q92604) | inactive: 0 |
| MAP7 (UniProt Q14244) | inactive: 0 |
| LTA4H (UniProt P09960) | inactive: 0 |
| LHPP (UniProt Q9H008) | inactive: 0 |
| LUC7L (UniProt Q9NQ29) | inactive: 0 |
| MCCC2 (UniProt Q9HCC0) | inactive: 0 |
| LIMK1 (UniProt P53667) | inactive: 0 |
| LRWD1 (UniProt Q9UFC0) | inactive: 0 |
| LAP3 (UniProt P28838) | active: 1 |
| LSM1 (UniProt O15116) | inactive: 0 |
| MCM5 (UniProt P33992) | inactive: 0 |
| LEPRE1 (UniProt Q32P28) | inactive: 0 |
| L3MBTL2 (UniProt Q969R5) | inactive: 0 |
| MAP3K4 (UniProt Q9Y6R4) | inactive: 0 |
| LTV1 (UniProt Q96GA3) | inactive: 0 |
| MCL1 (UniProt Q07820) | inactive: 0 |
| MAP3K7IP1 (UniProt Q15750) | inactive: 0 |

2 successive entries from above, quoted:

| Target | dose-dependent thermal stabilisation call |
| --- | --- |
| LTA4H (UniProt P09960) | inactive: 0 |
| LHPP (UniProt Q9H008) | inactive: 0 |

(next part)

| Target | dose-dependent thermal stabilisation call |
| --- | --- |
| LCP1 (UniProt P13796) | inactive: 0 |
| LDHB (UniProt P07195) | inactive: 0 |
| LPXN (UniProt O60711) | inactive: 0 |
| MAN2B1 (UniProt O00754) | inactive: 0 |
| MBTPS2 (UniProt O43462) | inactive: 0 |
| LSM3 (UniProt P62310) | inactive: 0 |
| MBD4 (UniProt O95243) | inactive: 0 |
| LYRM7 (UniProt Q5U5X0) | inactive: 0 |
| LIN7A (UniProt O14910) | inactive: 0 |
| LIN7C (UniProt Q9NUP9) | inactive: 0 |
| LOC442497 | inactive: 0 |
| LMNB1 (UniProt P20700) | inactive: 0 |
| LOC100131572 | inactive: 0 |
| LSM14A (UniProt Q8ND56) | inactive: 0 |
| LEMD3 (UniProt Q9Y2U8) | inactive: 0 |
| MCART6 (UniProt Q5H9E4) | inactive: 0 |
| MAPK9 (UniProt P45984) | inactive: 0 |
| LETM1 (UniProt O95202) | inactive: 0 |
